These results are taken from PMC7363799.

The chains behind the UniProt entries cited, without tags or fusion partners.
UniProt Q92736: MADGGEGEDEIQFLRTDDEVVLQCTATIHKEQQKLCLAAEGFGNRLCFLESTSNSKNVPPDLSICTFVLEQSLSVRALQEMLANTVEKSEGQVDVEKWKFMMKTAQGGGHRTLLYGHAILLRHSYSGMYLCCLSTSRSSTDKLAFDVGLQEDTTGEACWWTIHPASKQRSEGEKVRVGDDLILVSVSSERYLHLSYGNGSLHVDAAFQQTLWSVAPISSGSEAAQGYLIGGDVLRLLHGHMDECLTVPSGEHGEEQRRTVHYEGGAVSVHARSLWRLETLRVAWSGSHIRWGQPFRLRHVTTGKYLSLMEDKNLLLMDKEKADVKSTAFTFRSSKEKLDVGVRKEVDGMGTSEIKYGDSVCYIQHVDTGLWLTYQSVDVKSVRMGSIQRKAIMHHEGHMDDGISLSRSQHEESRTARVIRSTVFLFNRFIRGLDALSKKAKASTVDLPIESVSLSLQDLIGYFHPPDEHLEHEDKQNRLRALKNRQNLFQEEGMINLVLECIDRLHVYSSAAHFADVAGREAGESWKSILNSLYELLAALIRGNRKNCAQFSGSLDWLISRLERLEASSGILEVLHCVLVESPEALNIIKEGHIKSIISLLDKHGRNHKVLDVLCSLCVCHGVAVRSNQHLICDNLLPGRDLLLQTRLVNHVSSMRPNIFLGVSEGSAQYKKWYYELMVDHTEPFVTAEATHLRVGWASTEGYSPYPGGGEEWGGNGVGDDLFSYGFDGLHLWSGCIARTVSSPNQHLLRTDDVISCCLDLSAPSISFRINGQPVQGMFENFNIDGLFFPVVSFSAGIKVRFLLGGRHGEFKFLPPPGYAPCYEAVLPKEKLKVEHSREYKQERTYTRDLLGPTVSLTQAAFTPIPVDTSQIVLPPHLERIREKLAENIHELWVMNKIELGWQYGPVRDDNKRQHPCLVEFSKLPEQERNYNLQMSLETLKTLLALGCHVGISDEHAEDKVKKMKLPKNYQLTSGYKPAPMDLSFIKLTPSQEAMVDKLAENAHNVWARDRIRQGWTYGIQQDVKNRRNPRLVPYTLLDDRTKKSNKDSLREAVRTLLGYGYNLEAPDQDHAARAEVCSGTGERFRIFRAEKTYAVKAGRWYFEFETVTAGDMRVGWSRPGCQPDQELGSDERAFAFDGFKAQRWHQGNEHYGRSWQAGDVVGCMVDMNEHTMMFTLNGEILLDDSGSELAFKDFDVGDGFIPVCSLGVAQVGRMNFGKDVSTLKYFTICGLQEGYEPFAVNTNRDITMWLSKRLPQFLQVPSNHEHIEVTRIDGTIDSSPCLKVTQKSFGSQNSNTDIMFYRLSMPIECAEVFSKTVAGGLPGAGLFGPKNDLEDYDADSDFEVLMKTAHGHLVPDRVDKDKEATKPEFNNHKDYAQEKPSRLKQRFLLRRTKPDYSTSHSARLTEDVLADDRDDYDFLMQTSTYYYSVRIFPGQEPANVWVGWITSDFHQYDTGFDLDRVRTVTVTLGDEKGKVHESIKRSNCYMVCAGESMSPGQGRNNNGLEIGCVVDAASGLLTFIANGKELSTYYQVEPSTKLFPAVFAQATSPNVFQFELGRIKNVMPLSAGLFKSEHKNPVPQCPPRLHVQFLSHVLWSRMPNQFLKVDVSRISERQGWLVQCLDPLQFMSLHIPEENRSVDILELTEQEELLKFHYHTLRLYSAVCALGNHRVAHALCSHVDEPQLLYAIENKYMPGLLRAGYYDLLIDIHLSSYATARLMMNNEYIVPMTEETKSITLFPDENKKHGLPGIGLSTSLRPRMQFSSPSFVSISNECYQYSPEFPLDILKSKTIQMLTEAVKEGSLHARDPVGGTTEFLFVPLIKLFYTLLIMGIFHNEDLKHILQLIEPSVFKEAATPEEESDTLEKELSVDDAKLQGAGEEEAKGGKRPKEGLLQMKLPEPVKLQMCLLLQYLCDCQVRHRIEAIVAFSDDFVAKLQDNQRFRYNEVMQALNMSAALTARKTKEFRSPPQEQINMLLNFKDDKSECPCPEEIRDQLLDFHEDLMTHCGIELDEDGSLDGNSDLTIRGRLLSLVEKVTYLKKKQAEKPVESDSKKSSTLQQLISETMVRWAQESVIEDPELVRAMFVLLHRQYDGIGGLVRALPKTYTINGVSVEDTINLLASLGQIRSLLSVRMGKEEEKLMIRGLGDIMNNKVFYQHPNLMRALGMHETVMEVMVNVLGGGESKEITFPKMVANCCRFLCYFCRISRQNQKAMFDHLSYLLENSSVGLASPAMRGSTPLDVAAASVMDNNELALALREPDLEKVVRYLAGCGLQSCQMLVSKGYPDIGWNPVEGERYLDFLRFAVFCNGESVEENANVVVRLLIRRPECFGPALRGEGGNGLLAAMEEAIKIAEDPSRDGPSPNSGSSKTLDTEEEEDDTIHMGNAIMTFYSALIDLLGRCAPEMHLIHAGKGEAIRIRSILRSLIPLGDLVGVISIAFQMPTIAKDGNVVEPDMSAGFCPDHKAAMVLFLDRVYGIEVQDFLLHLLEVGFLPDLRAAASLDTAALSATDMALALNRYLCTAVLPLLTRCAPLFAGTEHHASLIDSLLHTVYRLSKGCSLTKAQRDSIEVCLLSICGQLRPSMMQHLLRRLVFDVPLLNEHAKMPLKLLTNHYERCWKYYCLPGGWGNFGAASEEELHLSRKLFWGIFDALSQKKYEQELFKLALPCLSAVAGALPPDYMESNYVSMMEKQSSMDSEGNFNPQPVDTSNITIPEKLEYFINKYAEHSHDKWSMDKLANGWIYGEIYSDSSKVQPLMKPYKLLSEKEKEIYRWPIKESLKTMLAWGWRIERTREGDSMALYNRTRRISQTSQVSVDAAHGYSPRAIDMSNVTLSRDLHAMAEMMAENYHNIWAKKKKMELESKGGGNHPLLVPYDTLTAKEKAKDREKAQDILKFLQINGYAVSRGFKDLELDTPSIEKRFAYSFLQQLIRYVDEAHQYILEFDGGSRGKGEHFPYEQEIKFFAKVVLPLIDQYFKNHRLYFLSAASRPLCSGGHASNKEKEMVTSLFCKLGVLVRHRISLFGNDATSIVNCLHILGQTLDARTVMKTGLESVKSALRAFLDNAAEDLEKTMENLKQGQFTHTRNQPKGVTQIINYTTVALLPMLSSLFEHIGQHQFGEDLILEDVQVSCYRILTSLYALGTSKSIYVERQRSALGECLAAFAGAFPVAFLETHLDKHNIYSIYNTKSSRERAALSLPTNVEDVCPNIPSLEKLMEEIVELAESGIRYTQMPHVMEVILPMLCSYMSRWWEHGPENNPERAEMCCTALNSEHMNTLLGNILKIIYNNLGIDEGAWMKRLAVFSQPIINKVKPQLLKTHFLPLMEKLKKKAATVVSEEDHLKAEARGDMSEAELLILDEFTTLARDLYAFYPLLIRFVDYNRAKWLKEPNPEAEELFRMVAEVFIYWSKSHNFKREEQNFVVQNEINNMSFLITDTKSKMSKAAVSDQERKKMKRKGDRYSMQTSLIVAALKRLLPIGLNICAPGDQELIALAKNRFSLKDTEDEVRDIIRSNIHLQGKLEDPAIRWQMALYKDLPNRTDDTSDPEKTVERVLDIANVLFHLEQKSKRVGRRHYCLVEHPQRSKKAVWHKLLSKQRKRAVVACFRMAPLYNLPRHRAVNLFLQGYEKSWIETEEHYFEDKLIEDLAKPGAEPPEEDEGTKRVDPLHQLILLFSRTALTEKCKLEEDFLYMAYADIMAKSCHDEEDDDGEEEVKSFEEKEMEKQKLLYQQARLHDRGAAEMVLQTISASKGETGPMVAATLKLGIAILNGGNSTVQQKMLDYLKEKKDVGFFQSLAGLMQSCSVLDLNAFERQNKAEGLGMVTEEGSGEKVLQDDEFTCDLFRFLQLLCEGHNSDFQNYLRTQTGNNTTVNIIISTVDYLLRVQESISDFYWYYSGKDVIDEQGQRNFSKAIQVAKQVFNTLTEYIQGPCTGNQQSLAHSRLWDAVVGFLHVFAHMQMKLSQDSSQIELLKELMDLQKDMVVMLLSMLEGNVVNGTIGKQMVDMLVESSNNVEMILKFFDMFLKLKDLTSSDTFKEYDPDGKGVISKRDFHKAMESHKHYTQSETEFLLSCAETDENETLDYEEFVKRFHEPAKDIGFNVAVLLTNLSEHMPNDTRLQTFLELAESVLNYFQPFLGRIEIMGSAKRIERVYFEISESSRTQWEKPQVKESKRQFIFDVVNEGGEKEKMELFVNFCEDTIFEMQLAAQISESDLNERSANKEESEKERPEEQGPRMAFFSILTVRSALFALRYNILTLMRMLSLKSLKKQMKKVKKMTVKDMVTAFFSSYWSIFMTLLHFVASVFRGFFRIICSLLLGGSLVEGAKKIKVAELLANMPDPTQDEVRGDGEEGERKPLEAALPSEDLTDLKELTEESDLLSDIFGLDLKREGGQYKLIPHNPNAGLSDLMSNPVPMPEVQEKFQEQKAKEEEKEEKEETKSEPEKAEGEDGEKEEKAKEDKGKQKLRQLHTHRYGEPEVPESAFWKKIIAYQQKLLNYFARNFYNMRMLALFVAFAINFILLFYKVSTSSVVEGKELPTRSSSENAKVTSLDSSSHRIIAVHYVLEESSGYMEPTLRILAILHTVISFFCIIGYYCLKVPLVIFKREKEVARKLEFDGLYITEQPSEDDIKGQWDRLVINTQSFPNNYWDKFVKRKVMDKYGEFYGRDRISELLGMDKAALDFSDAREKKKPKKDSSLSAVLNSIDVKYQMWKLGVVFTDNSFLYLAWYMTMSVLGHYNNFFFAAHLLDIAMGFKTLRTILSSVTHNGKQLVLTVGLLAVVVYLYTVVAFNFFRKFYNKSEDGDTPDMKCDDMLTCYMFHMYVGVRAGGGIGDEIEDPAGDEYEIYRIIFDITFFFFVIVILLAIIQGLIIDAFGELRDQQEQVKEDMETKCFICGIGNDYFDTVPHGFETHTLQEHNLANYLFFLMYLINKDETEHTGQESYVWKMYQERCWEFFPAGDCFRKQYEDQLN
UniProt P68106: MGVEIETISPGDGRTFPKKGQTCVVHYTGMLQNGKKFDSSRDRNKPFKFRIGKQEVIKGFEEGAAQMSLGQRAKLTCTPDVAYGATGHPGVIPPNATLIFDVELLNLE

This experiment has as its target ryanodine receptor 2 (RyR2), human (human (endogenous in pulmonary arteries)) (UniProt Q92736). Briefly: co-IP; PA homogenates (200 ug) / SR membrane preparations; RyR2 precipitated with anti-RyR2 antibody and protein-G at 4 °C overnight, blotted with anti-RyR2 and anti-FKBP12.6; tissue from normoxic and chronic-hypoxia mice (PA and mesentery arteries), also after FK506 (0.05 or 1 mg/kg/d), S107 (20 mg/kg/d) or RISP knockdown in vivo; human PAs from PH patients and non-PH controls.

Results are given in words; binding and its absence hold for the method and conditions named. In cells and extracts the contact can be indirect. Some entries that bind do so weakly or less than the wild type.

Regarding “FK506 binding protein 12.6 (FKBP12.6), human (from UniProt P68106 1-108)”, the binding entry is “binds”.
